# Laboratory results: PubChem BioAssay AID743121 (NCATS, 2013)
# Assay: 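Genes whose silencing strengthens cell killing by camptothecin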 (primary screen)
# Cell system: MDA-MB-231 cells, a human breast cancer line
# Knock-down reagent: single siRNA against human genes, 20 nM siRNA (0.8 pmol per well)
# Time to read-out: 120 h (drug added 48 h after transfection, read 72 h later)
# Conditions: camptothecin 20 nM (about EC30) for 72 h; vehicle 0.1% DMSO in parallel plates
# Detection: 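Cell viability by ATP luminescence (CellTiter-Glo) as % of non-targeting siRNA wells, and the log2 ratio of viability without drug over viability with camptothecin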
# Direction: log2 vehicle/camptothecin viability: higher = stronger sensitisation to camptothecin; viability with camptothecin and viability without drug: higher = more viable cells
# Rule for the call: 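Active genes have an RSA gene-level p-value below 0.001, computed from the ratios of their separate siRNAs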
# The deposit covers about 26,000 reagents; below is a random part of them. 167 of all reagents (0.63%) were called active. 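Calls are per gene from RSA p-values that are not deposited; an individual active-marked siRNA can sensitise only weakly.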 The numbers tell different reagents against one gene apart.
target gene,reagent no.,log2 vehicle/camptothecin viability,viability with camptothecin (% of control),viability without drug (% of control),activity call
FFAR2 (free fatty acid receptor 2),1,-0.568,101,67.9,inactive
FFAR2 (free fatty acid receptor 2),2,0.0166,63.7,64.4,inactive
FFAR2 (free fatty acid receptor 2),3,-0.168,96.3,85.7,inactive
FFAR2 (free fatty acid receptor 2),4,-0.0242,94.3,92.7,inactive
TCF7L2 (transcription factor 7 like 2),1,-0.169,53.1,47.2,inactive
TCF7L2 (transcription factor 7 like 2),2,0.0331,94.7,96.9,inactive
TCF7L2 (transcription factor 7 like 2),3,-0.0931,82.2,77,inactive
TCF7L2 (transcription factor 7 like 2),4,-0.187,20.7,18.2,inactive
FANCA (FA complementation group A),1,-0.216,79,68,inactive
FANCA (FA complementation group A),2,-0.0691,74.6,71.1,inactive
FANCA (FA complementation group A),3,0.284,59.6,72.6,inactive
FANCA (FA complementation group A),4,-0.333,79.8,63.3,inactive
C9 (complement C9),1,-0.692,84.3,52.2,inactive
C9 (complement C9),2,-0.175,98.3,87.1,inactive
C9 (complement C9),3,-0.0248,85,83.6,inactive
C9 (complement C9),4,-0.631,7.19,4.64,inactive
MRC2 (mannose receptor C-type 2),1,-0.301,62.8,51,inactive
MRC2 (mannose receptor C-type 2),2,-0.215,92.1,79.3,inactive
MRC2 (mannose receptor C-type 2),3,-0.155,46,41.4,inactive
DZANK1 (double zinc ribbon and ankyrin repeat domains 1),1,0.419,26.3,35.2,inactive
DZANK1 (double zinc ribbon and ankyrin repeat domains 1),2,-0.535,88.1,60.8,inactive
DZANK1 (double zinc ribbon and ankyrin repeat domains 1),3,0.222,75.6,88.1,inactive
ADCY4 (adenylate cyclase 4),1,-0.201,57.9,50.4,inactive
ADCY4 (adenylate cyclase 4),2,-0.0416,65.7,63.8,inactive
ADCY4 (adenylate cyclase 4),3,-0.0452,45.5,44.1,inactive

7 successive entries from above, for reference:
target gene,reagent no.,log2 vehicle/camptothecin viability,viability with camptothecin (% of control),viability without drug (% of control),activity call
C9 (complement C9),1,-0.692,84.3,52.2,inactive
C9 (complement C9),2,-0.175,98.3,87.1,inactive
C9 (complement C9),3,-0.0248,85,83.6,inactive
C9 (complement C9),4,-0.631,7.19,4.64,inactive
MRC2 (mannose receptor C-type 2),1,-0.301,62.8,51,inactive
MRC2 (mannose receptor C-type 2),2,-0.215,92.1,79.3,inactive
MRC2 (mannose receptor C-type 2),3,-0.155,46,41.4,inactive

The results go on:
target gene,reagent no.,log2 vehicle/camptothecin viability,viability with camptothecin (% of control),viability without drug (% of control),activity call
"SETD1B (SET domain containing 1B, histone lysine methyltransferase)",1,0.0108,106,107,inactive
"SETD1B (SET domain containing 1B, histone lysine methyltransferase)",2,0.235,75.9,89.4,inactive
"SETD1B (SET domain containing 1B, histone lysine methyltransferase)",3,-0.308,70.6,57,inactive
"SETD1B (SET domain containing 1B, histone lysine methyltransferase)",4,-0.22,86.8,74.5,inactive
SLC1A4,1,0.0445,78.8,81.3,inactive
SLC1A4,2,-0.281,91.8,75.6,inactive
SLC1A4,3,-0.191,115,101,inactive
SLC1A4,4,0.00847,66.1,66.5,inactive
TANK (TRAF family member associated NFKB activator),1,-0.0769,82.2,78,inactive
TANK (TRAF family member associated NFKB activator),2,-0.0109,82.3,81.7,inactive
TANK (TRAF family member associated NFKB activator),3,-0.227,77.8,66.5,inactive
TANK (TRAF family member associated NFKB activator),4,-0.518,88.7,62,inactive
MYOG (myogenin),1,-0.138,90.2,81.9,inactive
MYOG (myogenin),2,0.0234,99.7,101,inactive
MYOG (myogenin),3,0.0523,55,57,inactive
MYOG (myogenin),4,1.16,23.7,52.9,inactive
TSTD2 (thiosulfate sulfurtransferase like domain containing 2),1,-0.0175,76,75,inactive
TSTD2 (thiosulfate sulfurtransferase like domain containing 2),2,-0.387,115,88,inactive
TSTD2 (thiosulfate sulfurtransferase like domain containing 2),3,-0.0861,97.9,92.2,inactive
TSTD2 (thiosulfate sulfurtransferase like domain containing 2),4,-0.0169,80,79,inactive
AHCY (adenosylhomocysteinase),1,0.11,53.1,57.4,inactive
AHCY (adenosylhomocysteinase),2,-0.0929,54,50.6,inactive
AHCY (adenosylhomocysteinase),3,0.117,88.7,96.2,inactive
AHCY (adenosylhomocysteinase),4,0.593,41.3,62.3,inactive
MORN4 (MORN repeat containing 4),1,-0.323,64.3,51.4,inactive
MORN4 (MORN repeat containing 4),2,0.0224,45.1,45.8,inactive
MORN4 (MORN repeat containing 4),3,0.0257,92,93.6,inactive
TRPV4,1,-0.506,35.6,25,inactive
TRPV4,2,-0.401,69.7,52.8,inactive
TRPV4,3,-0.153,65.3,58.7,inactive
TRPV4,4,0.0755,92.7,97.7,inactive
TRIM16L (tripartite motif containing 16 like (pseudogene)),1,-0.0529,77.8,75,inactive
TRIM16L (tripartite motif containing 16 like (pseudogene)),2,0.312,19.5,24.2,inactive
TRIM16L (tripartite motif containing 16 like (pseudogene)),3,0.0248,89.1,90.7,inactive
RIPK1 (receptor interacting serine/threonine kinase 1),1,-0.541,47.2,32.4,inactive
RIPK1 (receptor interacting serine/threonine kinase 1),2,0.234,65.2,76.7,inactive
RIPK1 (receptor interacting serine/threonine kinase 1),3,-0.21,82.1,71,inactive
RIPK1 (receptor interacting serine/threonine kinase 1),4,0.233,76.2,89.5,inactive
PDE6C (phosphodiesterase 6C),1,0.0287,76.3,77.9,inactive
PDE6C (phosphodiesterase 6C),2,0.417,76.3,102,inactive
PDE6C (phosphodiesterase 6C),3,-0.268,115,95.5,inactive
DUS4L (dihydrouridine synthase 4 like),1,0.578,47.1,70.2,inactive
DUS4L (dihydrouridine synthase 4 like),2,-0.151,89.2,80.3,inactive
DUS4L (dihydrouridine synthase 4 like),3,0.165,84.4,94.6,inactive
DUS4L (dihydrouridine synthase 4 like),4,-0.604,64.1,42.2,inactive
